# Results published in patent publication US20110183848A1, “Piperazine Compounds With Herbicidal Effect” (BASF SE, priority 2008, published 2011).
# Some of these results come from one statement about several compounds together.
# What was measured:
# Test in all cases: greenhouse test, pre-emergence treatment
# Conditions in all cases: scale 0 to 100
# ECHCG = format: in vivo, Echinochloa crus-galli
# SETFA = format: in vivo, Setaria faberi
# APESV = format: in vivo, Apera spica-venti
structure (smiles),measurement,setting,value
CN1C(=O)C(C)(Cc2ccccc2)N(CC#N)C(=O)C1=Cc1ccccc1C#N (centres unmarked) [I-4],herbicidal activity against ECHCG,ECHCG; application rate 1.0 kg/ha,very good (a very good herbicidal activity is given at values of at least 85)
same,herbicidal activity against SETFA,SETFA; application rate 1.0 kg/ha,very good (a very good herbicidal activity is given at values of at least 85)
same,herbicidal activity against APESV,APESV; application rate 1.0 kg/ha,very good (a very good herbicidal activity is given at values of at least 85)
CN1C(=O)C(C)(Cc2ccccc2)N(CC#N)C(=O)C1=Cc1ccccc1[N+](=O)[O-] (centres unmarked) [I-9],herbicidal activity against ECHCG,ECHCG; application rate 1.0 kg/ha,very good (a very good herbicidal activity is given at values of at least 85)
same,herbicidal activity against APESV,APESV; application rate 1.0 kg/ha,very good (a very good herbicidal activity is given at values of at least 85)
CC#CCN1C(=O)C(=Cc2ccccc2C#N)N(C)C(=O)C1(C)Cc1ccccc1 (centres unmarked) [I-12],herbicidal activity against ECHCG,ECHCG; application rate 1.0 kg/ha,very good (a very good herbicidal activity is given at values of at least 85)
same,herbicidal activity against SETFA,SETFA; application rate 1.0 kg/ha,very good (a very good herbicidal activity is given at values of at least 85)
same,herbicidal activity against APESV,APESV; application rate 1.0 kg/ha,very good (a very good herbicidal activity is given at values of at least 85)
C=C(C)CN1C(=O)C(=Cc2ccccc2C#N)N(C)C(=O)C1(C)Cc1ccccc1 (centres unmarked) [I-14],herbicidal activity against ECHCG,ECHCG; application rate 0.5 kg/ha,very good (a very good herbicidal activity is given at values of at least 85)
same,herbicidal activity against ECHCG,ECHCG; application rate 1.0 kg/ha,very good (a very good herbicidal activity is given at values of at least 85)
same,herbicidal activity against SETFA,SETFA; application rate 0.5 kg/ha,very good (a very good herbicidal activity is given at values of at least 85)
same,herbicidal activity against SETFA,SETFA; application rate 1.0 kg/ha,very good (a very good herbicidal activity is given at values of at least 85)
same,herbicidal activity against APESV,APESV; application rate 0.5 kg/ha,very good (a very good herbicidal activity is given at values of at least 85)
CC=CCN1C(=O)C(=Cc2ccccc2C#N)N(C)C(=O)C1(C)Cc1ccccc1 (centres unmarked) [I-16],herbicidal activity against ECHCG,ECHCG; application rate 1.0 kg/ha,very good (a very good herbicidal activity is given at values of at least 85)
same,herbicidal activity against SETFA,SETFA; application rate 1.0 kg/ha,very good (a very good herbicidal activity is given at values of at least 85)
same,herbicidal activity against APESV,APESV; application rate 1.0 kg/ha,very good (a very good herbicidal activity is given at values of at least 85)
C=CCCN1C(=O)C(=Cc2ccccc2[N+](=O)[O-])N(C)C(=O)C1(C)Cc1ccccc1 (centres unmarked) [I-18],herbicidal activity against ECHCG,ECHCG; application rate 0.5 kg/ha,very good (a very good herbicidal activity is given at values of at least 85)
same,herbicidal activity against APESV,APESV; application rate 0.5 kg/ha,very good (a very good herbicidal activity is given at values of at least 85)
C=CCCN1C(=O)C(=Cc2ccccc2C#N)N(C)C(=O)C1(C)Cc1ccccc1 (centres unmarked) [I-19],herbicidal activity against ECHCG,ECHCG; application rate 0.5 kg/ha,very good (a very good herbicidal activity is given at values of at least 85)
same,herbicidal activity against SETFA,SETFA; application rate 0.5 kg/ha,very good (a very good herbicidal activity is given at values of at least 85)
same,herbicidal activity against APESV,APESV; application rate 0.5 kg/ha,very good (a very good herbicidal activity is given at values of at least 85)
CN1C(=O)C(C)(Cc2ccccc2)N(CCCC#N)C(=O)C1=Cc1ccccc1C#N (centres unmarked) [I-26],herbicidal activity against ECHCG,ECHCG; application rate 0.5 kg/ha,very good (a very good herbicidal activity is given at values of at least 85)
same,herbicidal activity against ECHCG,ECHCG; application rate 1.0 kg/ha,very good (a very good herbicidal activity is given at values of at least 85)
same,herbicidal activity against APESV,APESV; application rate 0.5 kg/ha,very good (a very good herbicidal activity is given at values of at least 85)
same,herbicidal activity against APESV,APESV; application rate 1.0 kg/ha,good (A good herbicidal activity is given at values of at least 70)
CN1C(=O)C(C)(Cc2ccccc2)N(CC=CCl)C(=O)C1=Cc1ccccc1C#N (centres unmarked) [I-34],herbicidal activity against ECHCG,ECHCG; application rate 0.5 kg/ha,very good (a very good herbicidal activity is given at values of at least 85)
same,herbicidal activity against APESV,APESV; application rate 0.5 kg/ha,very good (a very good herbicidal activity is given at values of at least 85)
CN1C(=O)C(C)(Cc2ccccc2)N(CCCC#N)C(=O)C1=Cc1ccccc1[N+](=O)[O-] (centres unmarked) [I-38],herbicidal activity against ECHCG,ECHCG; application rate 0.5 kg/ha,very good (a very good herbicidal activity is given at values of at least 85)
same,herbicidal activity against APESV,APESV; application rate 0.5 kg/ha,very good (a very good herbicidal activity is given at values of at least 85)
CN1C(=O)C(C)(Cc2ccccc2)N(CCC#N)C(=O)C1=Cc1ccccc1[N+](=O)[O-] (centres unmarked) [I-39],herbicidal activity against ECHCG,ECHCG; application rate 0.5 kg/ha,very good (a very good herbicidal activity is given at values of at least 85)
same,herbicidal activity against APESV,APESV; application rate 0.5 kg/ha,very good (a very good herbicidal activity is given at values of at least 85)
CN1C(=O)C(C)(Cc2ccccc2)N(CCC#N)C(=O)C1=Cc1ccccc1C#N (centres unmarked) [I-40],herbicidal activity against ECHCG,ECHCG; application rate 0.5 kg/ha,very good (a very good herbicidal activity is given at values of at least 85)
same,herbicidal activity against APESV,APESV; application rate 0.5 kg/ha,very good (a very good herbicidal activity is given at values of at least 85)
COCN1C(=O)C(=Cc2cccnc2C#N)N(C)C(=O)C1(C)Cc1ccccc1 (centres unmarked) [I-42],herbicidal activity against ECHCG,ECHCG; application rate 1.0 kg/ha,very good (a very good herbicidal activity is given at values of at least 85)
same,herbicidal activity against SETFA,SETFA; application rate 1.0 kg/ha,very good (a very good herbicidal activity is given at values of at least 85)
same,herbicidal activity against APESV,APESV; application rate 1.0 kg/ha,very good (a very good herbicidal activity is given at values of at least 85)
CC(C)=CCN1C(=O)C(=Cc2cccnc2C#N)N(C)C(=O)C1(C)Cc1ccccc1 (centres unmarked) [I-48],herbicidal activity against SETFA,SETFA; application rate 0.5 kg/ha,very good (a very good herbicidal activity is given at values of at least 85)
same,herbicidal activity against APESV,APESV; application rate 0.5 kg/ha,good (A good herbicidal activity is given at values of at least 70)
CCOc1ncccc1C=C1C(=O)N(CC#N)C(C)(Cc2ccccc2)C(=O)N1C (centres unmarked) [I-49],herbicidal activity against ECHCG,ECHCG; application rate 0.5 kg/ha,very good (a very good herbicidal activity is given at values of at least 85)
same,herbicidal activity against SETFA,SETFA; application rate 0.5 kg/ha,very good (a very good herbicidal activity is given at values of at least 85)
same,herbicidal activity against APESV,APESV; application rate 0.5 kg/ha,good (A good herbicidal activity is given at values of at least 70)
COCN1C(=O)C(=Cc2cccnc2C(F)(F)F)N(C)C(=O)C1(C)Cc1ccccc1 (centres unmarked) [I-53],herbicidal activity against ECHCG,ECHCG; application rate 0.5 kg/ha,very good (a very good herbicidal activity is given at values of at least 85)
same,herbicidal activity against SETFA,SETFA; application rate 0.5 kg/ha,very good (a very good herbicidal activity is given at values of at least 85)
same,herbicidal activity against APESV,APESV; application rate 0.5 kg/ha,very good (a very good herbicidal activity is given at values of at least 85)
CN1C(=O)C(C)(Cc2ccccc2)N(CC#N)C(=O)C1=Cc1cccnc1C(F)(F)F (centres unmarked) [I-54],herbicidal activity against ECHCG,ECHCG; application rate 0.5 kg/ha,very good (a very good herbicidal activity is given at values of at least 85)
same,herbicidal activity against SETFA,SETFA; application rate 0.5 kg/ha,very good (a very good herbicidal activity is given at values of at least 85)
same,herbicidal activity against APESV,APESV; application rate 0.5 kg/ha,very good (a very good herbicidal activity is given at values of at least 85)
CN1C(=O)C(C)(Cc2ccccc2)N(CC=CCl)C(=O)C1=Cc1cccnc1C#N (centres unmarked) [I-56],herbicidal activity against ECHCG,ECHCG; application rate 0.5 kg/ha,very good (a very good herbicidal activity is given at values of at least 85)
same,herbicidal activity against SETFA,SETFA; application rate 0.5 kg/ha,very good (a very good herbicidal activity is given at values of at least 85)
same,herbicidal activity against APESV,APESV; application rate 0.5 kg/ha,very good (a very good herbicidal activity is given at values of at least 85)
CN1C(=O)C(C)(Cc2ccccc2)N(CC#N)C(=O)C1=Cc1ccccc1OC(F)(F)F (centres unmarked) [I-57],herbicidal activity against SETFA,SETFA; application rate 0.5 kg/ha,very good (a very good herbicidal activity is given at values of at least 85)
same,herbicidal activity against APESV,APESV; application rate 0.5 kg/ha,very good (a very good herbicidal activity is given at values of at least 85)
CN1C(=O)C(C)(Cc2ccccc2)N(CC2CC2)C(=O)C1=Cc1ccccc1C(F)(F)F (centres unmarked) [I-63],herbicidal activity against ECHCG,ECHCG; application rate 0.5 kg/ha,very good (a very good herbicidal activity is given at values of at least 85)
same,herbicidal activity against SETFA,SETFA; application rate 0.5 kg/ha,very good (a very good herbicidal activity is given at values of at least 85)
CCOc1ncccc1C=C1C(=O)N(COC)C(C)(Cc2ccccc2)C(=O)N1C (centres unmarked) [I-72],herbicidal activity against ECHCG,ECHCG; application rate 0.5 kg/ha,very good (a very good herbicidal activity is given at values of at least 85)
same,herbicidal activity against SETFA,SETFA; application rate 0.5 kg/ha,very good (a very good herbicidal activity is given at values of at least 85)
same,herbicidal activity against APESV,APESV; application rate 0.5 kg/ha,very good (a very good herbicidal activity is given at values of at least 85)
CCOC(=O)CN1C(=O)C(=Cc2ccccc2OC(F)F)N(C)C(=O)C1(C)Cc1ccccc1 (centres unmarked) [I-76],herbicidal activity against SETFA,SETFA; application rate 0.5 kg/ha,very good (a very good herbicidal activity is given at values of at least 85)
same,herbicidal activity against APESV,APESV; application rate 0.5 kg/ha,very good (a very good herbicidal activity is given at values of at least 85)
CN1C(=O)C(C)(Cc2ccccc2)N(CC2CC2)C(=O)C1=Cc1ccccc1OC(F)F (centres unmarked) [I-79],herbicidal activity against ECHCG,ECHCG; application rate 0.5 kg/ha,very good (a very good herbicidal activity is given at values of at least 85)
same,herbicidal activity against SETFA,SETFA; application rate 0.5 kg/ha,very good (a very good herbicidal activity is given at values of at least 85)
CCOC(=O)CN1C(=O)C(=Cc2cccnc2Br)N(C)C(=O)C1(C)Cc1ccccc1 (centres unmarked) [I-81],herbicidal activity against ECHCG,ECHCG; application rate 0.5 kg/ha,very good (a very good herbicidal activity is given at values of at least 85)
same,herbicidal activity against SETFA,SETFA; application rate 0.5 kg/ha,very good (a very good herbicidal activity is given at values of at least 85)
same,herbicidal activity against APESV,APESV; application rate 0.5 kg/ha,very good (a very good herbicidal activity is given at values of at least 85)
COCN1C(=O)C(=Cc2cccnc2Br)N(C)C(=O)C1(C)Cc1ccccc1 (centres unmarked) [I-83],herbicidal activity against ECHCG,ECHCG; application rate 0.25 kg/ha,very good (a very good herbicidal activity is given at values of at least 85)
same,herbicidal activity against SETFA,SETFA; application rate 0.25 kg/ha,very good (a very good herbicidal activity is given at values of at least 85)
same,herbicidal activity against APESV,APESV; application rate 0.25 kg/ha,very good (a very good herbicidal activity is given at values of at least 85)
CN1C(=O)C(C)(Cc2ccccc2)N(CC#N)C(=O)C1=Cc1ccccc1OC(F)F (centres unmarked) [I-84],herbicidal activity against ECHCG,ECHCG; application rate 0.5 kg/ha,very good (a very good herbicidal activity is given at values of at least 85)
same,herbicidal activity against SETFA,SETFA; application rate 0.5 kg/ha,very good (a very good herbicidal activity is given at values of at least 85)
CCCCc1ncccc1C=C1C(=O)N(COC)C(C)(Cc2ccccc2)C(=O)N1C (centres unmarked) [I-91],herbicidal activity against ECHCG,ECHCG; application rate 0.5 kg/ha,very good (a very good herbicidal activity is given at values of at least 85)
same,herbicidal activity against SETFA,SETFA; application rate 0.5 kg/ha,very good (a very good herbicidal activity is given at values of at least 85)
same,herbicidal activity against APESV,APESV; application rate 0.5 kg/ha,very good (a very good herbicidal activity is given at values of at least 85)
CCOCN1C(=O)C(Cc2cccnc2OCC)N(C)C(=O)C1(C)Cc1ccccc1 (centres unmarked) [II-32],herbicidal activity against ECHCG,ECHCG; application rate 0.5 kg/ha,very good (a very good herbicidal activity is given at values of at least 85)
same,herbicidal activity against APESV,APESV; application rate 0.5 kg/ha,very good (a very good herbicidal activity is given at values of at least 85)
